Results are given in words; binding and its absence hold for the method and conditions named. Some binding calls cover weakened binding; strength is not graded here.
Experiments:
[1] = target: Toll-like Receptor 2 (human TLR2) (human) (UniProt O60603); test: TLR2 receptor occupancy in patients, told in the conclusion
[2] = target: Toll-like Receptor 2 (human TLR2) (human) (UniProt O60603); test: TLR2 bone marrow receptor occupancy after repeat dosing in patients
[3] = target: Toll-like Receptor 2 (human TLR2) (human) (UniProt O60603); test: receptor occupancy on patient blood PBMCs and bone marrow aspirates after IV dosing
[4] = target: Toll-like Receptor 2 (human TLR2) (human) (UniProt O60603); test: TLR2 receptor occupancy in patients' blood (PBMCs) after a single IV dose of OPN-305, over time after dose (days)
[5] = target: Toll-like Receptor 2 (human TLR2) (human) (UniProt O60603); test: TLR2 blood receptor occupancy after single IV dose in patients
[6] = target: Toll-like Receptor 2 (human TLR2) (human) (UniProt O60603); test: TLR2 receptor occupancy in patients' bone marrow aspirates after repeat IV dosing of OPN-305, at predose, week 8 and week 16
[7] = target: Toll-like Receptor 2 (human TLR2) (human) (UniProt O60603); test: TLR2 receptor occupancy in patients' blood (PBMCs) at trough (pre-dose) during repeat IV dosing of OPN-305 every four weeks, by week of dosing

Protein sequences, listed by entry. Tags and fused reporters are not part of them. Lines headed by an entry give the natural chain unless they say otherwise; changes in a name come on top.
UniProt O60603: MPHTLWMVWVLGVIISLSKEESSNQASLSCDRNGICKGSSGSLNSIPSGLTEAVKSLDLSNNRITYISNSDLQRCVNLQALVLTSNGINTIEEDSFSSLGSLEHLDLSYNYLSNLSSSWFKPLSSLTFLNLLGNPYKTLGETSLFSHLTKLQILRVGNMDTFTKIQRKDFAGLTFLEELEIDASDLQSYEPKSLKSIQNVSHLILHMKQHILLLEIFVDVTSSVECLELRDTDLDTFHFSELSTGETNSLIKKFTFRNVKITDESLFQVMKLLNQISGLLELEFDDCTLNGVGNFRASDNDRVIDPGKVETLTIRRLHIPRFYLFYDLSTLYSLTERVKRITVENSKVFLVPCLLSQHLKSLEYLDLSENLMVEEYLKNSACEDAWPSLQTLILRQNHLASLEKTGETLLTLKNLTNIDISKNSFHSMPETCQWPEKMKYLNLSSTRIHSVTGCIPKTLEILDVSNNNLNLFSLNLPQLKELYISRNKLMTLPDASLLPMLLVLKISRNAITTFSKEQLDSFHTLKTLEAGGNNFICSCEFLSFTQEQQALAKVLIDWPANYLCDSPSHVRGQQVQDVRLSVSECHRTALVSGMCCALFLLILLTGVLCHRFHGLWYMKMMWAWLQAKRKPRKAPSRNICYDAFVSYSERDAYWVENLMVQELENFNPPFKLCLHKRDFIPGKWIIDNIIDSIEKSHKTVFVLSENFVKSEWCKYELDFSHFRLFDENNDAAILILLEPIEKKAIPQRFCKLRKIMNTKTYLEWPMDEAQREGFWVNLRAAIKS

Measured: binding

B1: OPN-305 (antibody, human IgG4 S228P, kappa, V domains shown)
VH: QVQLVQSGSELKKPGASVKLSCKASGFTFTTYGINWVRQAPGQGLEWIGWIYPRDGSTNFNENFKDRATITVDTSASTAYMELSSLRSEDTAVYFCARLTGGTFLDYWGQGTTVTVSS
VL: DIVLTQSPATLSLSPGERATLSCRASESVEYYGTSLMQWYQQKPGQPPKLLIFGASNVESGVPDRFSGSGSGTDFTLKISRVEAEDVGMYFCQQSRKLPWTFGGGTKVEIKR
binds: all assays above

— US20210009707A1
